Laboratory results as given in doi:10.1101/181503.
These are yes or no findings as the source states them, for the method shown. In cells and extracts the contact can be indirect. A yes stands for co-enrichment or nearness to the bait. Other partners may have been found.

Biological target: FLAG-ATGL (adipose triglyceride lipase) (not stated (human or mouse cDNA cloned))
Experiment: affinity purification with mass spectrometry

B1: hypoxia-inducible gene 2 (HIG2), endogenous (protein, UniProt Q9Y5L2 1-63)
chain: MKHVLNLYLLGVVLTLLSIFVRVMESLEGLLESPSPGTSWTTRSQLANTEPTKGLPDHPSRSM
binding: binds
